Test results taken from PubChem BioAssay AID1347075 (National Center for Advancing Translational Sciences (NCATS), 2019).
The campaign covered roughly 400,000 compounds. About 5,500 (1.4%) were called active. The inconclusive results got no clear call from the source; some entries with a clear call stand among them for comparison. The call rests on the fitted dose curve; in most records, active means well fitted cell-killing curve with a large enough effect; inconclusive means small, poorly fitted or top-dose-only effect, or effect the other way; inactive means flat fitted curve, though single readings scatter. Where the call is inconclusive, the potency comes from a doubtful curve fit.
On the % scale 0 is the no-effect control and ±100 the full control effect; potency means the concentration at half of the fitted maximal effect.

Experiment: qHTS assay for MDR1-selective chemotherapeutics: Primary screen using the parental adenocarcinoma cell KB-3-1; further: nearly all actives have a fitted effect of over 60% in size
Settings: KB-3-1 viability, CellTiter-Glo ATP luminescence, 72 h; activity change, negative = cytotoxic: at 46.1 µM (top of the series)
Summary of the method: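 Here the drug-naive KB-3-1 line serves as comparator for MDR sub-line selectivity; cells received compound titrations, 72 h at 37 °C, then CellTiter-Glo readout.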
In the case of `O=C(CSc1nnc(-c2ccc(Cl)cc2)n1CC1CCCO1)NC1CCS(=O)(=O)C1` (stereo not given), the “activity change, negative = cytotoxic” value is reported as inactive: 4.25%.
With `Cn1ccnc1SCC(=O)c1cccc(Br)c1` the Potency was inconclusive: 25.9 µM [rising, partial curve, poor fit].
For `COC(=O)C1=CN(c2ccc(Oc3ccccc3)cc2)C(N)=C(C#N)C1c1cccc(F)c1` (stereo not given), the “activity change, negative = cytotoxic” value was inactive: -0.814%.
For `Cc1ccc2[nH]c3c(c2c1)CCCC3=O`, the Potency was active: 1.84 µM.
For `Nc1nc(NCc2ccccc2Cl)c2[nH]cnc2n1`, the “activity change, negative = cytotoxic” value was inactive: 0%.
For `Oc1ccc2ccccc2c1N=Nc1nccs1`, the Potency was active: 14.6 µM.
For `CN(Cc1cnc2nc(N)nc(N)c2n1)c1ccc(C(=O)NC(CCC(=O)O)C(=O)O)cc1C(F)(F)F` (stereo not given), the Potency was active: 0.013 µM.
In the case of `COc1ccc(C2C(C#N)=C(N)OC3=C2C(=O)CC(C)(C)C3)c([N+](=O)[O-])c1OC` (stereo not given), the Potency is reported as inconclusive: 29.1 µM [cytotoxic, single point].
In the case of `Cn1nccc1C(=O)NC1CCCc2c1cnn2-c1cc(F)cc(F)c1` (stereo not given), the Potency is reported as inconclusive: 3.66 µM [cytotoxic, full curve].
With `COc1cc2oc(=O)cc(-c3ccc(-c4ccc(CO)cc4)cc3)c2c(OC)c1OC` the “activity change, negative = cytotoxic” value was inactive: 0%.
For `O=C(NC1CCCCCCC1)C1CCN(c2nc3ccccc3o2)CC1`, the Potency was active: 18.4 µM.
With `CCC(C)(C)C1CCC2(CC1)NC(=S)N(c1ccccc1)N2` (stereo not given) the Potency was inconclusive: 23.1 µM [cytotoxic, single point].
With `Cc1ccc(S(=O)(=O)N/N=C/c2ccc(OCC(=O)N3CCOCC3)cc2)cc1` the “activity change, negative = cytotoxic” value was inactive: 9.51%.
With `COCCCNc1nc2c(c(=O)n(C)c(=O)n2C)n1Cc1cccc(OC)c1` the Potency was inconclusive: 9.2 µM [cytotoxic, partial curve].
In the case of `CCOc1ccc(C2C3=C(CCCC3=O)OC(N)=C2[N+](=O)[O-])cc1` (stereo not given), the “activity change, negative = cytotoxic” value is reported as inactive: 10.2%.
With `COc1ccc(-c2c3c(=O)n(C)c(=O)n(C)c3c3c(-c4ccccc4)nc4ccccc4n23)cc1` the “activity change, negative = cytotoxic” value was inactive: -4.61%.
For `CCOc1cc(N2CCOCC2)c(OCC)cc1NC(=O)c1cc(S(=O)(=O)N2CCOCC2)ccc1Cl`, the Potency was inconclusive: 18.4 µM [cytotoxic, single point].
With `O=C(Cc1ccc(-n2c(=O)[nH]c3ccccc3c2=O)cc1)N1CCN(c2cccc(Cl)c2)CC1` the Potency was inconclusive: 25.9 µM [cytotoxic, single point].
With `Cc1ccccc1OCCOC(=O)c1c(-c2ccccc2)noc1C` the Potency was active: 9.2 µM.
In the case of `COc1ccc(Cn2c(C(=O)O)c(CNCc3cccs3)c3ccc(C)cc32)cc1`, the Potency is reported as inconclusive: 23.1 µM [cytotoxic, single point].
With `O=S1(=O)CCOC[C@H](CC2CCCCC2)N1Cc1ccccc1Br` the Potency was inconclusive: 25.9 µM [cytotoxic, single point].
With `O=[N+]([O-])c1cc(/C=N/O)ccc1SCc1ccccc1Cl` the “activity change, negative = cytotoxic” value was inactive: -6.54%.
With `CCC(=O)c1ccc(OCCSc2ncccn2)cc1` the “activity change, negative = cytotoxic” value was inactive: -1.94%.
For `CCCc1nc(C)cc(N2CCN(c3ccccc3)CC2)n1`, the Potency was inconclusive: 16.4 µM [cytotoxic, single point].
For `CCOc1ccc2c(c1)C(C)=CC(C)(C)N2S(=O)(=O)c1ccc(F)cc1`, the Potency was active: 7.31 µM.
In the case of `CCN(C=NC1=NN(c2cccc(C(F)(F)F)c2)CC1)CC`, the Potency is reported as inconclusive: 23.1 µM [cytotoxic, single point].
With `CCC(=O)N(Cc1cc2cc(OC)ccc2[nH]c1=O)c1ccccc1C` the Potency was inconclusive: 29.1 µM [cytotoxic, single point].
With `CCc1ccc(-c2nc(CSCC(=O)N3CCN(c4ccccn4)CC3)c(C)o2)cc1` the Potency was inconclusive: 16.4 µM [cytotoxic, single point].
In the case of `Cc1cc(C)c(-c2csc(NC(=O)/C=C/c3cccs3)n2)c(C)c1`, the Potency is reported as inconclusive: 29.1 µM [cytotoxic, single point].
In the case of `Cc1cccc(Cn2ncc(Cl)c(Cl)c2=O)c1`, the Potency is reported as inconclusive: 29.1 µM [cytotoxic, single point].
With `CCCC(=O)N1CCN(c2nc3ccccc3s2)CC1` the Potency was inconclusive: 29.1 µM [cytotoxic, partial curve, poor fit].
With `CCCc1nn2c(=O)cc(CSCC(=O)Nc3cccc(C)c3)nc2s1` the Potency was inconclusive: 0.0259 µM [cytotoxic, full curve, poor fit].
In the case of `CC(=O)Oc1ccc2c(c1)CCC1C2CCC2(C)C(OC(C)=O)CCC12` (stereo not given), the Potency is reported as inconclusive: 29.1 µM [cytotoxic, single point].
In the case of `CCOC(=O)c1cc2cc(OC)ccc2[nH]1`, the “activity change, negative = cytotoxic” value is reported as inactive: -13.4%.
With `Cc1ccc(N2NC(=O)/C(=C\c3cc4c(cc3[N+](=O)[O-])OCO4)C2=O)cc1C` the Potency was inconclusive: 29.1 µM [cytotoxic, single point].
In the case of `O=C(Nc1ccc(N2CCCC2)cc1)c1cc(Cl)ccc1Cl`, the Potency is reported as inconclusive: 23.1 µM [cytotoxic, single point].
For `CN1c2cc(Cl)ccc2-c2nc(SCC(=O)Nc3ccc(F)cc3F)ncc2S1(=O)=O`, the Potency was inconclusive: 32.6 µM [cytotoxic, single point].
In the case of `COc1ccc(C(C)(C)C)cc1NC(=O)c1cc(S(=O)(=O)N(C)C)ccc1N1CCCC1`, the “activity change, negative = cytotoxic” value is reported as inactive: -7.64%.
For `COc1ccc(C(CNC(=O)c2cccc(S(=O)(=O)N3CCCC(C)C3)c2)N(C)C)cc1` (stereo not given), the activity change, negative = cytotoxic was inconclusive: -12.3%.
For `COc1ccc(NS(=O)(=O)c2cccs2)cc1S(=O)(=O)N1CCCCC1`, the Potency was inconclusive: 1.3 µM [cytotoxic, full curve, poor fit].
In the case of `O=C(COc1ccccc1-c1ccccc1)N/N=C/c1cccnc1`, the Potency is reported as inconclusive: 29.1 µM [cytotoxic, single point].
For `COc1ccc(CCN(C)CC(O)COC(c2ccc(F)cc2)c2ccc(F)cc2)cc1OC` (stereo not given), the Potency was inconclusive: 16.4 µM [cytotoxic, single point].
In the case of `O=C(NNC(=O)c1ccccc1-n1cccc1)c1ccc(Cl)c(Cl)c1`, the Potency is reported as inconclusive: 32.6 µM [cytotoxic, single point].
In the case of `Cc1ccc(Nc2c([N+](=O)[O-])c(=O)oc3ccccc23)cc1`, the Potency is reported as inconclusive: 29.1 µM [cytotoxic, single point].
For `Cc1cc(-c2ccccc2)nc(N(C)NC(=O)c2ccc(Cl)cc2)c1S(C)(=O)=O`, the “activity change, negative = cytotoxic” value was inactive: -23.1%.
